# Part of at least one peptide drawing is inferred or uncertain, most often the ends. Square brackets hold non-standard residues; d marks the D form. Peptide text beside a SMILES is read from it. * marks the point of attachment. Dabcyl = CN(C)c1ccc(N=Nc2ccc(C(=O)*)cc2)cc1; EDANS = O=S(=O)(O)c1cccc2c(NCCN*)cccc12; Abu = CC[C@H](N)C(=O)O; Lac = C[C@H](O)C(=O)O
# System: NS2/3 protease (SEQ ID NO. 4)
# Assay: Kinetic parameters for the NS3 protease activity of the NS2/3 protease with fluorogenic depsipeptide substrate
# Format: biochemical, Hepatitis C virus
smiles,measurement,setting,value
CC[C@H](NC(=O)[C@H](CCC(=O)O)NC(=O)[C@H](CCC(=O)O)NC(=O)[C@H](CC(=O)NCCNc1cccc2c(S(=O)(=O)O)cccc12)NC(=O)[C@H](CCC(=O)O)NC(=O)[C@H](CC(=O)O)NC(C)=O)C(=O)O[C@@H](C)C(=O)N[C@@H](CO)C(=O)N[C@@H](CCCCNC(=O)c1ccc(N=Nc2ccc(N(C)C)cc2)cc1)C(N)=O [Ac-DED(EDANS)EE-Abu[C(O)—O]ASK(DABCYL)-NH2] (Ac-DED(EDANS)EE[Abu][Lac]SK(Dabcyl)-NH2),Km,"0% LDAO, with NS4Apeptide (1000-fold molar excess)",0.57 µM
same,Km,"0% LDAO, without NS4Apeptide",0.45 µM
same,Km,"0.5% LDAO, with NS4Apeptide (1000-fold molar excess)",1.47 µM
same,Km,"0.5% LDAO, without NS4Apeptide",2.73 µM
same,Km,"1% LDAO, with NS4Apeptide (1000-fold molar excess)",1.43 µM
same,Km,"1% LDAO, without NS4Apeptide",3.85 µM

# Source: patent US7655394B2, “Hepatitis C virus NS2/3 activity assay” (priority 2005, dated 2010)
